# According to the supplement of paper PMC12889115:
# The other results are listed elsewhere or left out. These are raw signals, not scaled to a control.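 Primary screen: polymyxin B was added at a level permeabilizing Salmonella outer membranes while sparing inner membranes. DMSO wells, both with and without polymyxin B, established maximum growth. Plate-to-plate variation meant each plate was ranked on its own, and the lowest-OD600 compounds were selected as hits.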
# Test system: Salmonella enterica serovar Typhimurium SL1344
# Assay: bacterial growth OD600 after 18 h with compound and polymyxin B; higher = more bacterial growth (less inhibition)
# Conditions: 50 µM, Mueller-Hinton broth
Compound,bacterial growth OD600 (polymyxin B 0.75 µg/mL),bacterial growth OD600 (polymyxin B 1 µg/mL)
O=C(NCc1ccccc1F)c1ccc(N2CCC(NCc3cnn(Cc4ccccc4)c3)CC2)cc1,0.717,
CCCC(=O)N1CCC2(CCCN(CCCc3ccccc3)C2=O)C1 (stereo unspecified),,0.968
O=C(NCCN1CCCC(O)C1)c1ccc2nc(Cc3cccc(Cl)c3)oc2c1 (stereo unspecified),0.689,
CCOC(=O)C1CCN(c2nc3c(OC)ccc(OC)c3cc2CN[C@H]2CCCCNC2=O)CC1,0.884,
CC(C(=O)N1CCC(n2nccc2NC(=O)c2ccc3c(c2)OCO3)CC1)c1ccccc1 (stereo unspecified),,0.908
COc1ccc(CNC(=O)CCC2CCCN(Cc3ccc(F)cc3F)C2)c(OC)c1 (stereo unspecified),,1.12
O=C(c1ccccc1)C1CCCN(Cc2nc(COc3ccccc3)no2)C1 (stereo unspecified),,0.788
O=C(COc1ccc(N2CCN(c3ccccn3)CC2)nn1)NCC1(c2ccccc2)CCOCC1,0.775,
COc1ccc(CN2CCOc3ccc(C(C)(O)COc4ccccc4)cc3C2)c(OC)c1 (stereo unspecified),0.008,
Cc1c(C(=O)NCc2cccs2)oc2c(F)cccc12,,0.785
O=C(NCc1cccnc1Oc1ccccc1)c1ccccn1,0.778,
O=C(CCC1CCN(Cc2ncc[nH]2)CC1)Nc1ccccc1Cl,,0.902
Cc1nccn1CCC(=O)N(C)CC1CCCN(CCc2ccc(Cl)cc2)C1 (stereo unspecified),,0.664
CCOc1ccc2nc(N3CCCN(Cc4cccn4-c4ccccn4)CC3)nc(C)c2c1,0.892,
C#CCN(Cc1ccco1)C(=O)c1cc(OC)ccc1OC1CCN(C(=O)C2CC2)CC1,,0.449
CCOC(=O)N1CCC(N2CCCN(c3nc(C)c4cc(OCC)ccc4n3)CC2)CC1,0.775,

Compound,bacterial growth OD600 (polymyxin B 0.75 µg/mL),bacterial growth OD600 (polymyxin B 1 µg/mL)
CN(C(=O)c1ccsc1)C(Cc1ccccc1)C1CCN(C(=O)c2ccc3[nH]ccc3c2)CC1 (stereo unspecified),0.799,
COc1ccccc1CC(=O)NC1CC(=O)N(Cc2ccccc2Cl)C1 (stereo unspecified),,0.651
COc1ccc(NC(=O)CCC2CCCN(C(=O)c3occc3C)C2)cc1Cl (stereo unspecified),,0.929
CCOC(=O)C1(CCc2ccccc2)CCCN(C(=O)c2ccc(COC)s2)C1 (stereo unspecified),,0.007
Cc1ccc(CN2CCC(CN(C)Cc3cccn3-c3nccs3)CC2)o1,,0.797
O=C(c1coc(COc2cccc(C(F)(F)F)c2)n1)N1CCCCC1CCO (stereo unspecified),,0.827
CCn1nc(C)c(CNCc2cccnc2Oc2ccc(F)cc2F)c1C,,0.995
CC(=O)Nc1cc(C(=O)N2CCN(C(=O)c3ccco3)CC2)c2c(c1)nc(C)n2Cc1ccccc1,0.803,
Cc1nc(C(=O)NC2CC(=O)N(CCCc3ccccc3)C2)cs1 (stereo unspecified),,1.1
Cc1ccccc1CCC1CCCN(C(=O)C2(C)CC2)C1 (stereo unspecified),0.357,
COc1cc(-c2n[nH]cc2CN(CCO)Cc2ccccc2)cc(OC)c1OC,,1.03
O=C(CC(c1ccccc1)c1ccccc1Cl)N1CCN(CCO)CC1 (stereo unspecified),,0.936
Cc1cc(C(=O)N2CCCC(CCC(=O)Nc3ccc(F)cc3C)C2)nc(C)n1 (stereo unspecified),,0.869
COc1cc(=O)n2c(c1C(=O)N(C)Cc1nccs1)CCN(CCC(C)c1ccc(C)o1)CC2 (stereo unspecified),0.86,
C=CCC(O)(CC=C)CNC(=O)CCC1(Cc2ccc(OC)c3ccccc23)CCC(=O)N1 (stereo unspecified),0.846,

# Rewritten with tabs: entries from further up.
Compound	bacterial growth OD600 (polymyxin B 0.75 µg/mL)	bacterial growth OD600 (polymyxin B 1 µg/mL)
Cc1nc(C(=O)NC2CC(=O)N(CCCc3ccccc3)C2)cs1 (stereo unspecified)		1.1
Cc1ccccc1CCC1CCCN(C(=O)C2(C)CC2)C1 (stereo unspecified)	0.357	
COc1cc(-c2n[nH]cc2CN(CCO)Cc2ccccc2)cc(OC)c1OC		1.03
